Results are given in words; binding and its absence hold for the method and conditions named. In cells and extracts the contact can be indirect. Some binding calls cover weakened binding; strength is not graded here.
Biological target: CDK6 (human (endogenous in LCL)) (UniProt Q00534)
Experiment: co-IP; IP with mouse anti-CDK2 or anti-CDK6 antibodies from 250 ug LCL extract (D4 EBNA3A-REV and EBNA3A-KO); IP buffer 50mM Tris-HCl pH 7.5, 150mM NaCl, 1mM DTT, 0.5% Nonidet P-40; 4°C overnight; protein G-Sepharose; Western blot for p57KIP2, CDK2 or CDK6; mouse IgG as control

Sequences of proteins named here, by UniProt entry; tags and fusion partners are left off.
UniProt Q00534: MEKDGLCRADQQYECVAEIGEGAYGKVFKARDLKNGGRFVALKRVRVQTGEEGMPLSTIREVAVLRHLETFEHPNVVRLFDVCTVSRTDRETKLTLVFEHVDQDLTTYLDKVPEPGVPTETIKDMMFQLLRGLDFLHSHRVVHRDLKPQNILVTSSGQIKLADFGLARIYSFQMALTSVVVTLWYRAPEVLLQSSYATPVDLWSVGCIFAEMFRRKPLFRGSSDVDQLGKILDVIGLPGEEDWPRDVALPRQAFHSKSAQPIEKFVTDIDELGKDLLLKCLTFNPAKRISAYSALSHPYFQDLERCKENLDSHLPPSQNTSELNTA

- binding: binds
B1: p57^KIP2 (protein, UniProt P49918 1-316)
chain: MSDASLRSTSTMERLVARGTFPVLVRTSACRSLFGPVDHEELSRELQARLAELNAEDQNRWDYDFQQDMPLRGPGRLQWTEVDSDSVPAFYRETVQVGRCRLLLAPRPVAVAVAVSPPLEPAAESLDGLEEAPEQLPSVPVPAPASTPPPVPVLAPAPAPAPAPVAAPVAAPVAVAVLAPAPAPAPAPAPAPAPVAAPAPAPAPAPAPAPAPAPAPDAAPQESAEQGANQGQRGQEPLADQLHSGISGRPAAGTAAASANGAAIKKLSGPLISDFFAKRKRSAPEKSSGDVPAPCPSPSAAPGVGSVEQTPRKRLR
